# Measured values from US6897212B2, “Treatment of oppositional defiant disorder and conduct disorder with 5-aminoalkyl-4,5,6,7-tetrahydro-4-oxyindolones” (Afecta Pharmaceuticals, priority 2002, dated 2005).
# At least one structure is not confirmed: it was looked up by name or label, or the drawing left a doubt.
# Tested on: patients with ODD
# Assay: treatment of patients with oppositional defiant disorder and conduct disorder
# Type: in vivo, human
# Excerpt: The side effect is totally unacceptable to teenagers.
# Case histories are set out in the following examples, which are offered by way of illustration and are not intended to limit the invention in any manner.
smiles,measurement,setting,value
Cc1cc2c(s1)Nc1ccccc1N=C2N1CCN(C)CC1 [olanzapine],effect on oppositional behavior,"Example 3, patient one, used instead of molindone",significant improvement in the oppositional behavior
same,treatment of ODD,unpublished observations,capable of effectively treating ODD
